The text below walks through data of paper PMC12405659.

The chains behind the UniProt entries cited, without tags or fusion partners. Residues count along the entry.
UniProt Q9Y5F8, residues 31-929: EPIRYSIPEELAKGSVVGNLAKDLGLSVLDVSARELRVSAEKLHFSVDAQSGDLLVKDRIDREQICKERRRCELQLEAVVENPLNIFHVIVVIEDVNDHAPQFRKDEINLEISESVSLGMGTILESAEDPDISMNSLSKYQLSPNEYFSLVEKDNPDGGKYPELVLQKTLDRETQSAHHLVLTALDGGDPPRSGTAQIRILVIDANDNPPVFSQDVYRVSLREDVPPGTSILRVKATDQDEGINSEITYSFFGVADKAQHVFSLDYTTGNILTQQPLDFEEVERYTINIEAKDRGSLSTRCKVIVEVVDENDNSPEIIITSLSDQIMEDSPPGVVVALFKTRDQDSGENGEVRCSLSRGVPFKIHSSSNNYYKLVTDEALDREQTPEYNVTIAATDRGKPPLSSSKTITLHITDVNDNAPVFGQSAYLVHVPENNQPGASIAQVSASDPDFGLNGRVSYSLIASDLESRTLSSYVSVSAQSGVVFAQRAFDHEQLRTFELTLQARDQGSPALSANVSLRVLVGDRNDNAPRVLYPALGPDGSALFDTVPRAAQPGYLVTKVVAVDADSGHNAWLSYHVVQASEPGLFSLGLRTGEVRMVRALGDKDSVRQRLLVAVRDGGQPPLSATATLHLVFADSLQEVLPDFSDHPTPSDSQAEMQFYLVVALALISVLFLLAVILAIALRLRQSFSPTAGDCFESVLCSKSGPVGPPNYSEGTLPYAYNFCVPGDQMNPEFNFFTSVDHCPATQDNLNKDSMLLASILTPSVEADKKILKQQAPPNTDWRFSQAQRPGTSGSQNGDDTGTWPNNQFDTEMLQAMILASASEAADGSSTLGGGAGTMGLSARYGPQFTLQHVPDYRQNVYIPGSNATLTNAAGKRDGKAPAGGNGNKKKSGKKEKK
UniProt P01106: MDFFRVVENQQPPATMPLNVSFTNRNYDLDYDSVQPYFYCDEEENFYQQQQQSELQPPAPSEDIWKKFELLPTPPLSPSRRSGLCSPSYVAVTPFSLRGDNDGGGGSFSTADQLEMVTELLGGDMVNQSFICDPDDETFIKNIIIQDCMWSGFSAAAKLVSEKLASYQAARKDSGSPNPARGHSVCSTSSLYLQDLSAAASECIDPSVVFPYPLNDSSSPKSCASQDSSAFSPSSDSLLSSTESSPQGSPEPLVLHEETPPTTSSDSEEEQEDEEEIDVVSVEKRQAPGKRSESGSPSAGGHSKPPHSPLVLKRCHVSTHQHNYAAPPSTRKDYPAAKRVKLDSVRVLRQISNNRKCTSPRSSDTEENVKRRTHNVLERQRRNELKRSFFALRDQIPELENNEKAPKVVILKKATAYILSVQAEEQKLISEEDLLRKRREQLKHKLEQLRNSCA
UniProt P13010: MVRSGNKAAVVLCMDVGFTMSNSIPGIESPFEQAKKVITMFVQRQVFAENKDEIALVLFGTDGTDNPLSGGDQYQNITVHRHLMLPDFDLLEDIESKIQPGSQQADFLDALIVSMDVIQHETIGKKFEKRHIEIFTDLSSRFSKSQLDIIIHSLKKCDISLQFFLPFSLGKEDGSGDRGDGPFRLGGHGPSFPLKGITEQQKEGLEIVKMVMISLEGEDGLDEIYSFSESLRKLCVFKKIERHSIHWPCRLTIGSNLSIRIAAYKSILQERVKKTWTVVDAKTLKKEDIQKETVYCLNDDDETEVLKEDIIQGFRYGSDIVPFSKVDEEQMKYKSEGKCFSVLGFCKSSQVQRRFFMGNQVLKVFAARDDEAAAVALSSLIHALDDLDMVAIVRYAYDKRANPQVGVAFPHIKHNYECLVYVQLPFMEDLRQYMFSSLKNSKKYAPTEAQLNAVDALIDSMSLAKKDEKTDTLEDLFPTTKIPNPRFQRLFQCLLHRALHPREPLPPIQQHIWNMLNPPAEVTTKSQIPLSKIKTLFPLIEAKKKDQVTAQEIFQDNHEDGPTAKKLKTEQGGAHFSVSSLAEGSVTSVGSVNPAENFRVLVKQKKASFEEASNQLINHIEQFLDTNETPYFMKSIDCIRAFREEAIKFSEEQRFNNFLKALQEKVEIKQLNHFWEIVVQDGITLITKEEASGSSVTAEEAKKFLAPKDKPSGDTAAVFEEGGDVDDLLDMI

These are yes or no findings as the source states them, for the method shown. Binding seen in cells or lysates may run through a third protein. Some entries that bind do so weakly or less than the wild type.

One test has as its target PCDHGB7-flag (UniProt Q9Y5F8). Put plainly: co-IP; lysates of TNBC cells transfected with empty vector or PCDHGB7-flag; anti-flag, anti-MYC or control IgG; protein A/G-agarose beads; immunoblot. (In general: In western blotting, separated proteins are transferred to a membrane and probed.)
Test [1] deals with PCDHGB7 in Hs578T cells (PLA) (UniProt Q9Y5F8). Put plainly: proximity ligation; PLA in Hs578T cells.

For MYC (from UniProt P01106 1-454), in the test with PCDHGB7-flag, the binding result is given as “no binding”. Regarding “x‐ray repair cross‐complementary 5 (XRCC5) (from UniProt P13010 1-732)”, the binding result in test [1] is recorded as “binds”.
